Experimental data reported in publication PMC5355126.
Numbering of substitutions follows the chain as printed. No constants are given. Whether binding was seen depends on the method and setting. Binding seen in cells or lysates may run through a third protein. Some binding calls cover weakened binding; strength is not graded here. Values belong to the binder of their own block, whether it stands above or below them.

Sequences of proteins named here, by UniProt entry; tags and fusion partners are left off.
UniProt P49841: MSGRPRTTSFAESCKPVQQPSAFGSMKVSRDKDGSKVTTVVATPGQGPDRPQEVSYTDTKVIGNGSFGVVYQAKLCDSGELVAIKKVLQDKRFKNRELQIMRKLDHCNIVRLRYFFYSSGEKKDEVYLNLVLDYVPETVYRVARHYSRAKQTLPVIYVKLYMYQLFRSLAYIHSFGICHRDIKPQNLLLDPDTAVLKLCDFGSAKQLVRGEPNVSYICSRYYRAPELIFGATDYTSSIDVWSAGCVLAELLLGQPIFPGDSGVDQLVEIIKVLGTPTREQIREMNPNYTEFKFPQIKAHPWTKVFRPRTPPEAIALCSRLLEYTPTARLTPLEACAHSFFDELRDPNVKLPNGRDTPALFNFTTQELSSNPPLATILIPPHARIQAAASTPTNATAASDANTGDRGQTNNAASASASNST

How the values were obtained:
[1] = biological target: GSK3β, endogenous (human (endogenous in Malme3M^R, SNU387^R, Malme3M)) (UniProt P49841); assay: co-IP; Malme3M cells transiently transfected with each CAGE construct (1 ug), lysates 48 h after transfection; antibody 2 ug/ml
[2] = biological target: CAGE (cancer/testis antigen CAGE), endogenous (human (endogenous in Malme3M^R, SNU387^R)) (UniProt Q86TM3); assay: co-IP; endogenous proteins, lysates of Malme3M^R, SNU387^R or Malme3M^R-Taxol cells treated with the indicated peptide (10 uM) for 48 h; antibody 2 ug/ml

binding [1]: binds
B1: Full-length mutant CAGE (G-A-G-K-T) (protein, UniProt Q86TM3 1-631)
chain: MSHWAPEWKRAEANPRDLGASWDVRGSRGSGWSGPFGHQGPRAAGSREPPLCFKIKNNMVGVVIGYSGSKIKDLQHSTNTKIQIINGESEAKVRIFGNREMKAKAKAAIETLIRKQESYNSESSVDNAASQTPIGRNLGRNDIVGEAEPLSNWDRIRAAVVECEKRKWADLPPVKKNFYIESKATSCMSEMQVINWRKENFNITCDDLKSGEKRLIPKPTCRFKDAFQQYPDLLKSIIRVGIVKPTPIQSQAWPIILQGIDLIVVAQTGAGKTLSYLMPGFIHLDSQPISREQRNGPGMLVLTPTRELALHVEAECSKYSYKGLKSICIYGGRNRNGQIEDISKGVDIIIATPGRLNDLQMNNSVNLRSITYLVIDEADKMLDMEFEPQIRKILLDVRPDRQTVMTSATWPDTVRQLALSYLKDPMIVYVGNLNLVAVNTVKQNIIVTTEKEKRALTQEFVENMSPNDKVIMFVSQKHIADDLSSDFNIQGISAESLHGNSEQSDQERAVEDFKSGNIKILITTDIVSRGLDLNDVTHVYNYDFPRNIDVYVHRVGYIGRTGKTGTSVTLITQRDSKMAGELIKILDRANQSVPEDLVVMAEQYKLNQQKRHRETRSRKPGQRRKEFYFLS

binding [1]: no binding
B2: Full-length point mutant CAGE (G-T-G-A-T) (protein, UniProt Q86TM3 1-631)
chain: B1 chain with A270T, K272A

binding [1]: no binding
B3: Full-length point mutant CAGE (G-T-G-K-A) (protein, UniProt Q86TM3 1-631)
chain: B1 chain with A270T, T273A

binding [2]: binds
Binder: GTGKT [GTGKT peptide]
